The other results are listed elsewhere or left out. The main result of the screen is listed elsewhere. These columns were measured beside it and carry no call. Most of these compounds were active or inconclusive in the main read-out, so they are no random draw. Words in brackets tell the shape of the fitted curve; partial curves, single points and poor fits give uncertain potencies.
Experiment: qHTS Assay for Modulators of Lamin A Splicing
Settings: HeLa LMNA splicing GFP/RFP minigene ratio, 48 h
How it was run: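 S3 HeLa stable clones carrying a lamin A-EGFP splicing minigene plus DsRed2 were seeded at 600 cells/well in Opti-MEM with 2% FBS, pin-dosed and incubated 48 h at 37°C. Acumen cytometry (488 nm) gave the GFP/RFP total-intensity ratio.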

[1] = measured here: RFP viability control channel
[2] = measured here: GFP splicing reporter channel

Question: Which AC50 [1] does the source give for `CN(C)c1ccnc(-n2cccc2/C=N/OCc2ccc(F)cc2Cl)c1C#N` here?
Answer: 15.8 µM [rising, single point]

Question: Which AC50 [1] does the source give for `CN1CCN(S(=O)(=O)c2cccc(C(=O)N3CCc4ccccc43)c2)CC1` here?
Answer: 14.1 µM [falling, partial curve]

Question: For `CCOC(=O)c1ccc(N=c2sc(C(=O)OC)cc(=O)n2CCCN2CCOCC2)cc1`, which AC50 [2] is on record?
Answer: 17.8 µM [falling, single point]

Question: Which AC50 [2] does the source give for `Cn1c(CC2Sc3ccccc3NC2=O)nnc1SCC(=O)c1ccc(Cl)cc1` (stereo not drawn) here?
Answer: 1.26 µM [falling, partial curve]

Question: Which AC50 [1] does the source give for `CCCCn1c(=S)[nH]c2ccc(N3CCOCC3)cc2c1=O` here?
Answer: 3.98 µM [falling, full curve]

Question: Which AC50 [1] does the source give for `CC(C)c1nn2c(=O)cc(COC(=O)c3ccc(NC(=O)C4CCCCC4)cc3)nc2s1` here?
Answer: 5.62 µM [rising, full curve, poor fit]

Question: Which results are given for `Cc1cccc(NC(=S)/N=C(\N)Nc2nc(C)c3ccccc3n2)c1`?
Answer: AC50 [2]: 11.2 µM [rising, single point]; AC50 [1]: 15.8 µM [rising, single point]

Question: With `Cc1c(C)c2ccc(OS(C)(=O)=O)cc2oc1=O` as the compound, how does the AC50 [2] read?
Answer: 0.0224 µM [falling, full curve, poor fit]

Question: Which results are given for `COC(=O)c1cc(=O)n(CCc2ccc(OC)cc2)c(=Nc2ccc(F)c(Cl)c2)s1`?
Answer: AC50 [2]: 22.4 µM [falling, single point]; AC50 [1]: 35.5 µM [falling, single point]

Question: With `COCCN1CCN(Cc2nc(Cc3ccc(OC)c(OC)c3)no2)CC1` as the compound, how does the AC50 [2] read?
Answer: 0.0224 µM [falling, full curve, poor fit]

Question: What about the AC50 [1] of the same compound?
Answer: 0.0282 µM [falling, full curve]

Question: For `COc1cc2cc(C(=O)Nc3ccccc3)c(N)nc2cc1OC`, which AC50 [1] is on record?
Answer: 0.0158 µM [rising, full curve, poor fit]

Question: With `CC1CC(C)CN(S(=O)(=O)c2ccc(C(C)(C)C)cc2)C1` (stereo not drawn) as the compound, how does the AC50 [2] read?
Answer: 1.78 µM [falling, partial curve, poor fit]

Question: For `CCCOc1ccc(S(=O)(=O)NNC(=O)c2cc3ccccc3o2)cc1`, which AC50 [1] is on record?
Answer: 15.8 µM [rising, single point]

Question: For `O=C(NCc1ccco1)c1cc2ccccc2o1`, which AC50 [2] is on record?
Answer: 31.6 µM [rising, single point]

Question: With `CCOC(=O)/C(C#N)=C/c1cn(CCC(=O)O)nc1-c1ccc(OC)cc1` as the compound, how does the AC50 [1] read?
Answer: 2.82 µM [rising, partial curve, poor fit]

Question: Which AC50 [2] does the source give for `COc1ccc(S(=O)(=O)N2CCN(c3ccc4nnc(-c5ccc(F)cc5)n4n3)CC2)cc1` here?
Answer: 35.5 µM [rising, single point]

Question: Which AC50 [2] does the source give for `CCOc1ccc(C(=O)NC2CC(=O)N(c3ccc(C)cc3)C2)cc1OCC` (stereo not drawn) here?
Answer: 14.1 µM [falling, single point]

Question: For `COc1ccc(/C=N/NC(=O)c2nc(-c3ccccc3)cc(-c3ccccc3)n2)cc1O`, which AC50 [1] is on record?
Answer: 31.6 µM [rising, single point]

Question: With `C[C@@H]1CN(C(=O)c2nc3ccc(Cl)cn3c2CN[C@H]2CCCCNC2=O)C[C@H](C)O1` as the compound, how does the AC50 [1] read?
Answer: 0.501 µM [falling, full curve, poor fit]

Question: With `COc1ccc(/C=N/Nc2nc(N)cc(Cl)n2)cc1OC` as the compound, how does the AC50 [2] read?
Answer: 12.6 µM [rising, partial curve, poor fit]

Question: With `Cc1ccc(-n2c(C)cc(C)c(C#N)c2=O)cc1` as the compound, how does the AC50 [1] read?
Answer: 0.794 µM [falling, partial curve]

Question: What does the source list for `COc1ccccc1OCC(=O)NCCSCc1ccccc1Cl`?
Answer: AC50 [2]: 11.2 µM [rising, partial curve]; AC50 [1]: 15.8 µM [rising, single point]

Question: With `Cc1ccc(NC(=O)CCOc2ccccc2)cc1S(=O)(=O)Nc1ccccc1Cl` as the compound, how does the AC50 [2] read?
Answer: 12.6 µM [rising, single point]

Question: What about the AC50 [1] of the same compound?
Answer: 28.2 µM [rising, single point]

Question: For `Cc1ccccc1CNC(=O)CN1C(=O)C2CCCCN2c2ccc(C(=O)N3CCCC3)cc21` (stereo not drawn), which AC50 [2] is on record?
Answer: 5.01 µM [falling, partial curve, poor fit]

Question: Which AC50 [1] does the source give for `CCC(C)(C)n1nnnc1C(c1cccs1)N1CCc2ccccc21` (stereo not drawn) here?
Answer: 11.2 µM [rising, partial curve, poor fit]

Question: Which AC50 [2] does the source give for `O=C(c1ccc(-c2ccccc2)cc1)C1CCCN(C(=O)c2ccncc2)C1` (stereo not drawn) here?
Answer: 35.5 µM [rising, single point]

Question: Which AC50 [1] does the source give for `CC1CC(C)CN(CCOc2ccccc2-c2ccccc2)C1` (stereo not drawn) here?
Answer: 12.6 µM [rising, single point]

Question: With `O=C(Nc1ccc2c(c1)N(C1CCCC1)C(=O)c1ccccc1S2)c1ccccc1F` as the compound, how does the AC50 [2] read?
Answer: 8.91 µM [falling, partial curve, poor fit]

Question: With `COC(=O)c1ccccc1NC(=O)c1cc2cc(C)ccc2n1C` as the compound, how does the AC50 [2] read?
Answer: 4.47 µM [falling, partial curve]

Question: What about the AC50 [1] of the same compound?
Answer: 5.62 µM [falling, single point]

Question: For `CCS(=O)(=O)N1Cc2ccccc2CC1C(=O)Nc1nccs1` (stereo not drawn), which AC50 [1] is on record?
Answer: 2.24 µM [rising, full curve, poor fit]

Question: For `Cc1ccc(S(=O)(=O)N2CCC(C(=O)N3Cc4ccccc4C3)CC2)cc1`, which AC50 [2] is on record?
Answer: 20 µM [rising, single point]

Question: What about the AC50 [1] of the same compound?
Answer: 22.4 µM [rising, single point]

Question: Which AC50 [1] does the source give for `c1ccc(CN2CCN(c3ncnc4c3cnn4-c3ccccc3)CC2)cc1` here?
Answer: 0.178 µM [falling, full curve, poor fit]

Question: With `CCc1cc(C(=O)Cc2ccc(F)cc2)c(O)cc1O` as the compound, how does the AC50 [1] read?
Answer: 12.6 µM [rising, partial curve]

Question: Which AC50 [2] does the source give for `COC(=O)c1ccccc1NC(=O)c1cnn2cccnc12` here?
Answer: 12.6 µM [falling, partial curve]

Question: What about the AC50 [1] of the same compound?
Answer: 20 µM [falling, partial curve, poor fit]

Question: For `Cc1cc(NC(=O)c2noc3c2CCCC3)nn1Cc1ccc(Cl)cc1`, which AC50 [1] is on record?
Answer: 35.5 µM [rising, single point]

Question: Which AC50 [1] does the source give for `O=C(NCc1ccc(F)cc1)c1ccc(CS(=O)(=O)Cc2ccc(F)cc2)o1` here?
Answer: 12.6 µM [rising, partial curve]

Question: With `COc1ccc2c(c1)CC[C@@H]1[C@@H]2CC[C@]2(C)C(=O)CC[C@@H]12` as the compound, how does the AC50 [2] read?
Answer: 12.6 µM [rising, single point]

Question: And the AC50 [1]?
Answer: 35.5 µM [rising, single point]

Question: With `CCSc1ccccc1C(=O)Nc1ccc(-c2nc3ccccc3s2)c(O)c1` as the compound, how does the AC50 [2] read?
Answer: 12.6 µM [falling, single point]

Question: And the AC50 [1]?
Answer: 10 µM [falling, single point]

Question: For `CCOCCCNS(=O)(=O)c1ccc(NC(=O)c2ccc(OC)c([N+](=O)[O-])c2)cc1`, which AC50 [1] is on record?
Answer: 0.794 µM [falling, full curve, poor fit]

Question: For `CSCCC(NC(=O)c1cncc(Br)c1)C(=O)O` (stereo not drawn), which AC50 [2] is on record?
Answer: 11.2 µM [rising, partial curve, poor fit]

Question: For `O=c1[nH]c2cc3c(cc2cc1CN(Cc1cccnc1)C(=S)NCc1ccco1)OCO3`, which AC50 [1] is on record?
Answer: 0.0141 µM [falling, full curve, poor fit]

Question: Which AC50 [1] does the source give for `Cc1ccccc1Nc1nnc(SCC(=O)c2cc3ccccc3o2)s1` here?
Answer: 35.5 µM [rising, single point]

Question: With `Cc1ccc(NC(=O)CSc2ccc(-c3ccccn3)nn2)cc1` as the compound, how does the AC50 [2] read?
Answer: 10 µM [falling, partial curve]

Question: Which results are given for `Fc1cccc2sc(Nc3nc4cc5c(cc4s3)OCCO5)nc12`?
Answer: AC50 [2]: 11.2 µM [rising, partial curve]; AC50 [1]: 15.8 µM [rising, partial curve]

Question: Which AC50 [1] does the source give for `CC(=O)/C(=N\Nc1ccccc1)Sc1cccc2cccnc12` here?
Answer: 35.5 µM [rising, single point]

Question: Which results are given for `Cc1cn([C@H]2C[C@@H](N=[N+]=[N-])[C@@H](CO)O2)c(=O)[nH]c1=O`?
Answer: AC50 [2]: 5.62 µM [falling, partial curve, poor fit]; AC50 [1]: 5.62 µM [falling, single point]

Question: With `CCc1ccccc1NC(=S)N(Cc1cccc(C)c1)c1cccnc1` as the compound, how does the AC50 [1] read?
Answer: 0.00316 µM [falling, full curve, poor fit]

Question: With `COCC(C)n1c(C)cc(C(=O)COC(=O)c2c(NC(C)=O)sc(C)c2C)c1C` (stereo not drawn) as the compound, how does the AC50 [1] read?
Answer: 3.98 µM [rising, partial curve, poor fit]

Question: What does the source list for `COc1ccc(N=C2SC(CC(=O)Nc3ccccc3OC)C(=O)N2Cc2ccco2)cc1` (stereo not drawn)?
Answer: AC50 [2]: 17.8 µM [rising, single point]; AC50 [1]: 35.5 µM [rising, single point]

Question: For `CC(NC(=O)CCCCCCN1C(=O)c2ccccc2C1=O)c1ccc2c(c1)CCCC2` (stereo not drawn), which AC50 [1] is on record?
Answer: 31.6 µM [rising, single point]

Question: For `CCCNS(=O)(=O)c1ccc(CCC(=O)N2CCN(c3ccc(F)cc3)CC2)cc1`, which AC50 [2] is on record?
Answer: 14.1 µM [rising, single point]

Question: And the AC50 [1]?
Answer: 20 µM [rising, single point]

Question: With `COc1cc(Cl)c(C)cc1NC(=O)CSc1ccc(NC(C)=O)cc1` as the compound, how does the AC50 [1] read?
Answer: 35.5 µM [rising, single point]

Question: For `Cc1ccc2nc(COc3ccccc3NC(=O)C(C)(C)C)cc(=O)n2c1`, which AC50 [1] is on record?
Answer: 7.08 µM [falling, partial curve, poor fit]

Question: Which AC50 [1] does the source give for `COc1ccccc1NC(=O)Nc1ccc(Cc2ccncc2)cc1` here?
Answer: 11.2 µM [rising, single point]

Question: Which AC50 [2] does the source give for `COC(=O)NC(=C(Cl)Cl)S(=O)(=O)c1ccccc1` here?
Answer: 3.16 µM [falling, partial curve]

Question: And the AC50 [1]?
Answer: 0.501 µM [falling, single point]

Question: Which AC50 [1] does the source give for `CC(C)Cn1c(C(C)NC(=O)Cc2ccccc2)nc2ccccc21` (stereo not drawn) here?
Answer: 31.6 µM [rising, single point]

Question: Which AC50 [1] does the source give for `O=C(Cc1ccc(F)cc1)NCc1ccc2c(c1)CCN2C(=O)c1ccc(F)cc1` here?
Answer: 3.98 µM [rising, full curve]

Question: Which AC50 [1] does the source give for `COc1ccccc1N1CCN(CCCCOc2ccc(F)cc2)CC1` here?
Answer: 22.4 µM [rising, single point]

From PubChem BioAssay AID1487 (National Center for Advancing Translational Sciences (NCATS), 2009)
